Results on 14 compounds are retold here after patent US12410113B2, “Sandalwood-type fragrance compounds” (SYMRISE AG, priority 2019, dated 2025).

The nature of the data set: Odor evaluation (odor description, odor strength).

“Also recorded” adds a separate entry of the source. Read-outs that look alike come from different tables or passages of the source. Some entries repeat one wording, which the source may state once for all of them.

Take `C=C(/C=C(\CC)CO)C1CC=C(C)C1(C)C` (stereo not drawn) [Compound N, 2-ethyl-4-(2,2,3-trimethylcyclopent-3-en-1-yl)penta-2,4-dien-1-ol]: the “Odor (description)” value was “woody, floral and sandalwood or a milky, floral, creamy and sandalwood note”. Same read-out and setting: the entry for `C=C(CO)CCC1CC2CC2(C)C1(C)C` (stereo not drawn) [B, 2-methylene-4-(1,2,2-trimethyl-3-bicyclo[3.1.0]hexanyl)butan-1-ol] is “sandalwood, woody, creamy”; for `C=C(/C=C(\C)CO)C1CC=C(C)C1(C)C` (stereo not drawn) [Compound J, (2E)-2-methyl-4-(2,2,3-trimethylcyclopent-3-en-1-yl)penta-2,4-dien-1-ol] it is “sandalwood, creamy, woody”. The same measure, in the same setting: the entry for `C=C(C=C(C)CO)C1CC2CC2(C)C1(C)C` (stereo not drawn) [Compound L, 2-methyl-4-(1,2,2-trimethyl-3-bicyclo[3.1.0]hexanyl)penta-2,4-dien-1-ol] is “sandalwood, woody, creamy”; for `CC1=CCC(C2(/C=C/C(C)O)CC2)C1(C)C` (stereo not drawn) [F] it is “creamy, chocolate, natural character of patchouli”; for `CC1=CCC(CCC2(CO)CC2)C1(C)C` (stereo not drawn) [G, [1-[2-(2,2,3-trimethylcyclopent-3-en-1-yl)ethyl]cyclopropyl]methanol] it is “sandalwood, woody, creamy, sweet, soft”. For the compound `C/C=C(/C=C(\C)C1CC=C(C)C1(C)C)CO` (stereo not drawn) [O, 2-ethylidene-4-(2,2,3-trimethylcyclopent-3-en-1-yl)pent-3-en-1-ol], the “Odor (description)” value is “woody, floral and sandalwood or a milky, floral, creamy and sandalwood note”. Besides, the “Odor (description)” value (listed as 2-ethylidene-4-(2,2,3-trimethylcyclopent-3-en-1-yl)pent-3-en-1-ol) was “milky, floral, creamy, sandalwood”.

Consider `C=C(/C=C(\C)C1CC=C(C)C1(C)C)CO` (stereo not drawn) [K, (E)-2-methylene-4-(2,2,3-trimethylcyclopent-3-en-1-yl)pent-3-en-1-ol], for which the “Odor (description)” value is recorded as “sandalwood, creamy, woody”. The same measure, in the same setting: the entry for `C=C(CO)CC(=C)C1CC=C(C)C1(C)C` (stereo not drawn) [I, 2-methylene-4-(2,2,3-trimethylcyclopent-3-en-1-yl)pent-4-en-1-ol] is “sandalwood, creamy, woody”; for `C=C(CO)CCC1CC=C(C)C1(C)C` (stereo not drawn) [Compound A, 2-methylene-4-(2,2,3-trimethylcyclopent-3-en-1-yl)butan-1-ol] it is “sandalwood, woody”; for `CC/C(=C\C(C)C1CC=C(C)C1(C)C)CO` (stereo not drawn) [M, 2-ethyl-4-(2,2,3-trimethylcyclopent-3-en-1-yl)pent-2-en-1-ol] it is “woody, floral, sandalwood; also recorded: woody, floral and sandalwood or a milky, floral, creamy and sandalwood note”. As to `CC1=CCC(C2(CC(C)CO)CC2)C1(C)C` (stereo not drawn) [E, 2-methyl-3-[1-(2,2,3-trimethylcyclopent-3-en-1-yl)cyclopropyl]propan-1-ol], the “Odor (description)” value is listed as “sandalwood, woody”. Still for that read-out and setting: the entry for `CC1(C)C(CCC2(CO)CC2)CC2CC21C` (stereo not drawn) [C, [1-[2-(1,2,2-trimethyl-3-bicyclo[3.1.0]hexanyl)ethyl]cyclopropyl]methanol] is “sandalwood, woody, creamy”; for `CC1=CCC(C2(/C=C(\C)CO)CC2)C1(C)C` (stereo not drawn) [D, 2-methyl-3-[1-(2,2,3-trimethylcyclopent-3-en-1-yl)cyclopropyl]prop-2-en-1-ol] it is “sandalwood, woody, amber like”.
